Measurements reported in paper PMC8154061.
Results are given in words; binding and its absence hold for the method and conditions named. Binding seen in cells or lysates may run through a third protein. Some entries that bind do so weakly or less than the wild type. Where a sequence is shown, tags or fusion partners need not be part of it.

T1: SLAH3-YFP (Arabidopsis thaliana) (UniProt Q9FLV9)
T1 sequence: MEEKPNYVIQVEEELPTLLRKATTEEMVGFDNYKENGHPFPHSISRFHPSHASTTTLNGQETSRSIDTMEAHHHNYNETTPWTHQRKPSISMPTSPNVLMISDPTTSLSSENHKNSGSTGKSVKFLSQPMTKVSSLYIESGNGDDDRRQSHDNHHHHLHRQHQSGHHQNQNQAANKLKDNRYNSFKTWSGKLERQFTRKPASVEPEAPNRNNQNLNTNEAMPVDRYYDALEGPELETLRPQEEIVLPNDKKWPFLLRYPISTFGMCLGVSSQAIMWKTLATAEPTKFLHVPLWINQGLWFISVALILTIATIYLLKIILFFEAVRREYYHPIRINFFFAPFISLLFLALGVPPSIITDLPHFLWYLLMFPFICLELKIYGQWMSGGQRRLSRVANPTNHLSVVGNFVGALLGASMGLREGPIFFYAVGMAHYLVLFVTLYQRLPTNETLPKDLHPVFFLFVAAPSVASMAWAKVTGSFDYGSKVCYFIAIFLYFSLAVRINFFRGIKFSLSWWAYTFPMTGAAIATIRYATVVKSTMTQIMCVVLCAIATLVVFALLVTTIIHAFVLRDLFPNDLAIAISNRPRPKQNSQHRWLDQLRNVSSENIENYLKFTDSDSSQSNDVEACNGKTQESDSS

T2: full length SLAH3, BiFC fusion (Arabidopsis thaliana) (UniProt Q9FLV9)
T2 sequence: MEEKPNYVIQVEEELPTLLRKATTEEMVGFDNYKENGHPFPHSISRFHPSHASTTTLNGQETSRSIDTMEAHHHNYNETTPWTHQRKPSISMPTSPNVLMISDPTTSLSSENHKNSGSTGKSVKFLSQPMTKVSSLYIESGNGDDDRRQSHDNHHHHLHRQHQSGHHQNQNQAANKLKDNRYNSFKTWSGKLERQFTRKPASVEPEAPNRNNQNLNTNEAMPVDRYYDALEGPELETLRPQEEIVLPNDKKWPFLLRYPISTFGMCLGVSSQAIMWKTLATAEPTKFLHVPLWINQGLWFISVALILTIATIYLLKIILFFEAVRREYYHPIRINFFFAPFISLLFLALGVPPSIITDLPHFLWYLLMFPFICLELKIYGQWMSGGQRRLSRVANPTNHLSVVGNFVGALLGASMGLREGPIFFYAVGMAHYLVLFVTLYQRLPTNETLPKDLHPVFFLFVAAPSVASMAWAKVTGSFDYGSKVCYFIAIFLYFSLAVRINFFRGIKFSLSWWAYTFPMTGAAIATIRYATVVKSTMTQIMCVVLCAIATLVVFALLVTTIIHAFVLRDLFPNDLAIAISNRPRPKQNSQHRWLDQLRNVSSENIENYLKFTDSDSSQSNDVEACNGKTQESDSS

T3: full-length SLAH3, mbSUS fusion (Arabidopsis thaliana) (UniProt Q9FLV9)
T3 sequence: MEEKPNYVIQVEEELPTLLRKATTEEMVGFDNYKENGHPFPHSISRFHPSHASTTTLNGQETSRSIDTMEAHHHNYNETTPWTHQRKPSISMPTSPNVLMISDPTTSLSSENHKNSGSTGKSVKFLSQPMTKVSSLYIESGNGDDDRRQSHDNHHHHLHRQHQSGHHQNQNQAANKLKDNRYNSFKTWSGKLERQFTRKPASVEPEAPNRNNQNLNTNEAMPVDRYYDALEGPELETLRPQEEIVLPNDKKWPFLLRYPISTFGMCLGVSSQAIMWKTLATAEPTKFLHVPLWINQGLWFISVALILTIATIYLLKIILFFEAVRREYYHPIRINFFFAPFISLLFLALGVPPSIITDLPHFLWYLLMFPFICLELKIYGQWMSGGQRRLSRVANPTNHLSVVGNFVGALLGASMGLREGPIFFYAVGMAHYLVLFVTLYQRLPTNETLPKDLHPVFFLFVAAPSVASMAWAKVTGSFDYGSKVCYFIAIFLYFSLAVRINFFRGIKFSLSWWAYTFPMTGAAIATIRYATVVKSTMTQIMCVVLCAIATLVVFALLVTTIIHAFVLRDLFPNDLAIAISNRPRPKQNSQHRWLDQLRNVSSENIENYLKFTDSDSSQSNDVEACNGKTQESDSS


Legend:
[1] = target: T1, SLAH3-YFP (Arabidopsis thaliana); assay: FRET or BRET; sensitized emission; SnRK1.1/mSnRK1.1-CFP donor, SLAH3-YFP acceptor, coexpressed in planta
[2] = target: T1, SLAH3-YFP (Arabidopsis thaliana); assay: FRET or BRET; acceptor photobleaching; SnRK1.1/mSnRK1.1-CFP donor, SLAH3-YFP acceptor, coexpressed in planta
[3] = target: T2, full length SLAH3, BiFC fusion (Arabidopsis thaliana); assay: split reporter; BiFC (split YFP) in transiently transformed leaf epidermal cells and isolated mesophyll protoplasts of N. benthamiana
[4] = target: T3, full-length SLAH3, mbSUS fusion (Arabidopsis thaliana); assay: mating-based split ubiquitin system (mbSUS); diploid yeast (THY.AP4 x THY.AP5) grown on SD minimal medium with 0, 150, 300 or 500 uM Met; SLAH3 in pMetYCgate, SnRK1.1 in pX-NubWTgate

| binding [2] | binding [3] | binding [4] | Binder | binding [1] |
| --- | --- | --- | --- | --- |
| binds |  |  | SnRK1.1-CFP (protein, UniProt Q38997 1-512) MDGSGTGSRSGVESILPNYKLGRTLGIGSFGRVKIAEHALTGHKVAIKILNRRKIKNMEMEEKVRREIKILRLFMHPHIIRLYEVIETPTDIYLVMEYVNSGELFDYIVEKGRLQEDEARNFFQQIISGVEYCHRNMVVHRDLKPENLLLDSKCNVKIADFGLSNIMRDGHFLKTSCGSPNYAAPEVISGKLYAGPEVDVWSCGVILYALLCGTLPFDDENIPNLFKKIKGGIYTLPSHLSPGARDLIPRMLVVDPMKRVTIPEIRQHPWFQAHLPRYLAVPPPDTVQQAKKIDEEILQEVINMGFDRNHLIESLRNRTQNDGTVTYYLILDNRFRASSGYLGAEFQETMEGTPRMHPAESVASPVSHRLPGLMEYQGVGLRSQYPVERKWALGLQSRAHPREIMTEVLKALQDLNVCWKKIGHYNMKCRWVPNSSADGMLSNSMHDNNYFGDESSIIENEAAVKSPNVVKFEIQLYKTRDDKYLLDLQRVQGPQFLFLDLCAAFLAQLRVL | binds |
|  | binds |  | SnRK1.1, BiFC fusion (protein, UniProt Q38997 1-512) MDGSGTGSRSGVESILPNYKLGRTLGIGSFGRVKIAEHALTGHKVAIKILNRRKIKNMEMEEKVRREIKILRLFMHPHIIRLYEVIETPTDIYLVMEYVNSGELFDYIVEKGRLQEDEARNFFQQIISGVEYCHRNMVVHRDLKPENLLLDSKCNVKIADFGLSNIMRDGHFLKTSCGSPNYAAPEVISGKLYAGPEVDVWSCGVILYALLCGTLPFDDENIPNLFKKIKGGIYTLPSHLSPGARDLIPRMLVVDPMKRVTIPEIRQHPWFQAHLPRYLAVPPPDTVQQAKKIDEEILQEVINMGFDRNHLIESLRNRTQNDGTVTYYLILDNRFRASSGYLGAEFQETMEGTPRMHPAESVASPVSHRLPGLMEYQGVGLRSQYPVERKWALGLQSRAHPREIMTEVLKALQDLNVCWKKIGHYNMKCRWVPNSSADGMLSNSMHDNNYFGDESSIIENEAAVKSPNVVKFEIQLYKTRDDKYLLDLQRVQGPQFLFLDLCAAFLAQLRVL |  |
|  | binds |  | kinase-dead variant (K48M) of SnRK1.1 (mSnRK1.1), BiFC fusion (protein, UniProt Q38997 1-512) MDGSGTGSRSGVESILPNYKLGRTLGIGSFGRVKIAEHALTGHKVAIMILNRRKIKNMEMEEKVRREIKILRLFMHPHIIRLYEVIETPTDIYLVMEYVNSGELFDYIVEKGRLQEDEARNFFQQIISGVEYCHRNMVVHRDLKPENLLLDSKCNVKIADFGLSNIMRDGHFLKTSCGSPNYAAPEVISGKLYAGPEVDVWSCGVILYALLCGTLPFDDENIPNLFKKIKGGIYTLPSHLSPGARDLIPRMLVVDPMKRVTIPEIRQHPWFQAHLPRYLAVPPPDTVQQAKKIDEEILQEVINMGFDRNHLIESLRNRTQNDGTVTYYLILDNRFRASSGYLGAEFQETMEGTPRMHPAESVASPVSHRLPGLMEYQGVGLRSQYPVERKWALGLQSRAHPREIMTEVLKALQDLNVCWKKIGHYNMKCRWVPNSSADGMLSNSMHDNNYFGDESSIIENEAAVKSPNVVKFEIQLYKTRDDKYLLDLQRVQGPQFLFLDLCAAFLAQLRVL |  |
|  |  | binds | SnRK1.1, mbSUS fusion (protein, UniProt Q38997 1-512) MDGSGTGSRSGVESILPNYKLGRTLGIGSFGRVKIAEHALTGHKVAIKILNRRKIKNMEMEEKVRREIKILRLFMHPHIIRLYEVIETPTDIYLVMEYVNSGELFDYIVEKGRLQEDEARNFFQQIISGVEYCHRNMVVHRDLKPENLLLDSKCNVKIADFGLSNIMRDGHFLKTSCGSPNYAAPEVISGKLYAGPEVDVWSCGVILYALLCGTLPFDDENIPNLFKKIKGGIYTLPSHLSPGARDLIPRMLVVDPMKRVTIPEIRQHPWFQAHLPRYLAVPPPDTVQQAKKIDEEILQEVINMGFDRNHLIESLRNRTQNDGTVTYYLILDNRFRASSGYLGAEFQETMEGTPRMHPAESVASPVSHRLPGLMEYQGVGLRSQYPVERKWALGLQSRAHPREIMTEVLKALQDLNVCWKKIGHYNMKCRWVPNSSADGMLSNSMHDNNYFGDESSIIENEAAVKSPNVVKFEIQLYKTRDDKYLLDLQRVQGPQFLFLDLCAAFLAQLRVL |  |
| binds |  |  | mSnRK1.1-CFP (protein, UniProt Q38997 1-512) MDGSGTGSRSGVESILPNYKLGRTLGIGSFGRVKIAEHALTGHKVAIMILNRRKIKNMEMEEKVRREIKILRLFMHPHIIRLYEVIETPTDIYLVMEYVNSGELFDYIVEKGRLQEDEARNFFQQIISGVEYCHRNMVVHRDLKPENLLLDSKCNVKIADFGLSNIMRDGHFLKTSCGSPNYAAPEVISGKLYAGPEVDVWSCGVILYALLCGTLPFDDENIPNLFKKIKGGIYTLPSHLSPGARDLIPRMLVVDPMKRVTIPEIRQHPWFQAHLPRYLAVPPPDTVQQAKKIDEEILQEVINMGFDRNHLIESLRNRTQNDGTVTYYLILDNRFRASSGYLGAEFQETMEGTPRMHPAESVASPVSHRLPGLMEYQGVGLRSQYPVERKWALGLQSRAHPREIMTEVLKALQDLNVCWKKIGHYNMKCRWVPNSSADGMLSNSMHDNNYFGDESSIIENEAAVKSPNVVKFEIQLYKTRDDKYLLDLQRVQGPQFLFLDLCAAFLAQLRVL | binds |
|  |  | binds | mSnRK1.1 (K48M), mbSUS fusion (protein, UniProt Q38997 1-512) MDGSGTGSRSGVESILPNYKLGRTLGIGSFGRVKIAEHALTGHKVAIMILNRRKIKNMEMEEKVRREIKILRLFMHPHIIRLYEVIETPTDIYLVMEYVNSGELFDYIVEKGRLQEDEARNFFQQIISGVEYCHRNMVVHRDLKPENLLLDSKCNVKIADFGLSNIMRDGHFLKTSCGSPNYAAPEVISGKLYAGPEVDVWSCGVILYALLCGTLPFDDENIPNLFKKIKGGIYTLPSHLSPGARDLIPRMLVVDPMKRVTIPEIRQHPWFQAHLPRYLAVPPPDTVQQAKKIDEEILQEVINMGFDRNHLIESLRNRTQNDGTVTYYLILDNRFRASSGYLGAEFQETMEGTPRMHPAESVASPVSHRLPGLMEYQGVGLRSQYPVERKWALGLQSRAHPREIMTEVLKALQDLNVCWKKIGHYNMKCRWVPNSSADGMLSNSMHDNNYFGDESSIIENEAAVKSPNVVKFEIQLYKTRDDKYLLDLQRVQGPQFLFLDLCAAFLAQLRVL |  |
